Primary screen of a compound library

Protein sequences, listed by entry. Tags and fused reporters are not part of them.
UniProt E9BF75, entry or part of it: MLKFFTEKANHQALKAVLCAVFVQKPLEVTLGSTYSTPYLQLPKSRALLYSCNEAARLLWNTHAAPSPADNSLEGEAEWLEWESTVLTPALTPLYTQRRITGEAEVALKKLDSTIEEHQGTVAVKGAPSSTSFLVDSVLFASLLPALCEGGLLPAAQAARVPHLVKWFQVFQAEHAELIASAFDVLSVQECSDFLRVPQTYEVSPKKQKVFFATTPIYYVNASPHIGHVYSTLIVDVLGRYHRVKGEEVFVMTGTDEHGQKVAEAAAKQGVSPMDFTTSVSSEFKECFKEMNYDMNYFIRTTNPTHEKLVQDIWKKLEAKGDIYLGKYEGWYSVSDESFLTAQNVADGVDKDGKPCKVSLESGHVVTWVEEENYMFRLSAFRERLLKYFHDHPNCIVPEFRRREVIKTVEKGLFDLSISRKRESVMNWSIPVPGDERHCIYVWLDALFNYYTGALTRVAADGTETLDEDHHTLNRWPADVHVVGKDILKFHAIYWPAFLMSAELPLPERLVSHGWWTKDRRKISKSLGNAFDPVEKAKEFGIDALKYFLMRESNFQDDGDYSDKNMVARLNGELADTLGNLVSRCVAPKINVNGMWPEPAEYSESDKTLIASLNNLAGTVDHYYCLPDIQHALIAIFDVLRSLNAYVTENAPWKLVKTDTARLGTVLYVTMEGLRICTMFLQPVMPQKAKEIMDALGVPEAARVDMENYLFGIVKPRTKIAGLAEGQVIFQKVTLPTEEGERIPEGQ

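Methionyl-tRNA synthetase (putative), Leishmania donovani (UniProt E9BF75). Primary screen of methionyl-tRNA synthetase; the read-out is not stated. The test concentration is not given. Values are per cent inhibition. Of about 68,000 compounds tested this way, about 24 (0.035%) reached 50% or more in at least one test.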

All values are in %. How 0% and 100% were set is not recorded. Most values in the screen are low, and negative values occur. This is an unselected part of the compounds tested.

| # | compound | inhibition |
|---|---|---|
| 1 | `COc1ccccc1OCCCN(C)c1cc(C)nc(N)n1` | 2.667% |
| 2 | `CCS(=O)(=O)N1CCc2cc(C(=O)NC)c(NCC3CC3)nc2CC1` | 17.58% |
| 3 | `Cc1nc(C2CCCN(C(=O)CO)C2)cc(N2CCOCC2)n1` (stereo not given) | 9.63% |
| 4 | `Cn1cccc1C(=O)N1C[C@H]2CC[C@@H]1CN(Cc1cscn1)C2` | 18.65% |
| 5 | `Cc1nnsc1CN(C)Cc1ccc(C(=O)Nc2sccc2C#N)cc1` | 6.684% |
| 6 | `NC(=O)c1cnc(NC(=O)CCc2ccco2)c(Cl)c1` | 3.141% |
| 7 | `CS(=O)(=O)CCC(=O)Nc1cnn(-c2ccccc2Cl)c1` | 14.92% |
| 8 | `O=C(C1CCOC1)N1CCC2(CC1)CN(Cc1nccs1)CCO2` (stereo not given) | 12% |
| 9 | `CCC(=O)N1CCCN(c2cncc(-n3nc(C)cc3C)n2)CC1` | 9.89% |
| 10 | `OC[C@H]1CC[C@]2(CC1)CN(Cc1ccsc1)Cc1ccccc1O2` | 12.99% |
| 11 | `COc1cccc(C2CCCN2Cc2nc3c(cnn3C)c(=O)[nH]2)c1` (stereo not given) | 7.042% |
| 12 | `CCc1n[nH]c(C2CN(C(=O)Cn3ccccc3=O)CCO2)n1` (stereo not given) | 9.722% |
| 13 | `O=C1N(c2ccc(Br)cc2)Cc2n[nH]c(=O)n21` | 11.11% |
| 14 | `Cc1nc(N)cc(NCc2csc(N(C)C)n2)n1` | 16.01% |
| 15 | `Cc1nc(C)n(CCNS(=O)(=O)NCc2ccccc2)n1` | 11.93% |
| 16 | `CC(=O)c1ccc(-n2c(C)cn(CCC(=O)NC(N)=O)c2=O)cc1` | 19.24% |
| 17 | `Cn1cncc1CN1CCC2(CC1)CCN2c1ncccn1` | 11.5% |
| 18 | `O=C(c1cccnc1)N1CCOC(CCCc2ccccc2)C1` (stereo not given) | -2.41% |
| 19 | `CCn1cnnc1CNC(=O)N(C)Cc1ccc(F)c(F)c1` | 16.34% |
| 20 | `CC(C)CC(C#N)NC(=O)c1ccc(Oc2cccnc2)cc1` (stereo not given) | 14.71% |
| 21 | `CCn1cc(CN(C)S(=O)(=O)c2cc(Cl)ccc2Cl)cn1` | 8.714% |
| 22 | `Cc1nc(C)n(C2CCCN(C(=O)Cc3n[nH]c4ccccc34)C2)n1` (stereo not given) | 11.74% |
| 23 | `N#Cc1c(N2CCCN(C3CCOCC3)CC2)nc2ccccn12` | 8.014% |
| 24 | `Cn1c(=O)cc(C(=O)NC(Cc2ccsc2)c2cccnc2)[nH]c1=O` (stereo not given) | 12.66% |
| 25 | `Cc1ccc(CC(=O)N2CC[C@@H]3CN(CCN(C)C)CCO[C@@H]3C2)cc1` | 5.724% |
| 26 | `CCn1cc(N2Cc3nc(N4CCC(O)CC4)ncc3C2=O)cn1` | -35.43% |
| 27 | `O=C(NC1(C(=O)NCC2CC2)CCCC1)C1Cc2cc(F)ccc2O1` (stereo not given) | 13.97% |
| 28 | `O=C(NCc1cccnc1)[C@@H]1C[C@H]2[C@H](CCN2c2ncccn2)O1` | 2.198% |
| 29 | `C[C@@H]1CN(C2(C(=O)N3CCOCC3)Cc3ccccc3C2)C[C@H](C)O1` | 15.04% |
| 30 | `Cc1cnn(CC2CCCN2C(=O)c2csc(-c3nnc[nH]3)n2)c1` (stereo not given) | 19.34% |
| 31 | `Cc1cc(F)ccc1OC1(C(=O)O)CCN(Cc2cccnc2N)CC1` | 17.56% |
| 32 | `CCOCCn1c(=O)[nH]c2cc(C(=O)N(C)Cc3cnn(C)c3)ccc21` | 2.611% |
| 33 | `COc1ccc(C)cc1-n1c(COC(C)C)n[nH]c1=O` | 8.014% |
| 34 | `COCc1c(C(=O)N2CCCC(C(=O)c3nccn3C)C2)noc1C` (stereo not given) | 2.899% |
| 35 | `CCc1nsc(N2CCN(Cc3ccno3)CC2)n1` | 3.509% |
| 36 | `COCC(=O)NC[C@H]1C[C@@H]2CCN1C[C@@H]2CN(C)c1ccccc1` | 4.407% |
| 37 | `CCn1nnc(NCc2ccc(-c3ccc(Br)cc3)o2)n1` | 3.118% |
| 38 | `Cc1nc(CN(C)C2CCN(CCn3cc(C#N)cn3)C2)no1` (stereo not given) | 10.83% |
| 39 | `Cc1nn(C)c(C)c1S(=O)(=O)N1CC[C@H]2O[C@@H](C)C[C@H]2C1` | 12.32% |
| 40 | `Cc1cccc(-c2ccc(C(=O)NCC(C)(C)C(N)=O)c(=O)[nH]2)c1` | 5.229% |
| 41 | `CCCOc1ccc(Cl)cc1C(=O)N1CCC(n2cncn2)CC1` | 5.672% |
| 42 | `COC(=O)c1cccc(NS(=O)(=O)c2cnc(NC(C)=O)s2)c1` | 12.03% |
| 43 | `Cn1nnc(NCc2ccc(OCc3ccc(Cl)cc3)cc2)n1` | 2.428% |
| 44 | `Cc1ccc(CN(C)CC(=O)NC2(C)CCS(=O)(=O)C2)cc1` (stereo not given) | 8.392% |
| 45 | `COCCNC(=O)CN1CCN(c2nc3cc(C)ccc3o2)CC1` | 7.474% |
| 46 | `CC(CCn1cccn1)NCc1n[nH]c2c1CCCCC2` (stereo not given) | 5.389% |
| 47 | `c1ccc(CN2CCC(NCCSc3ncn[nH]3)C2)cc1` (stereo not given) | 0% |
| 48 | `CS(=O)(=O)N1CCN(C(=O)c2cccc(Cl)c2)CC2(CNC(=O)C2)C1` (stereo not given) | 19.71% |
| 49 | `COCCN1CCN(C(=O)c2cc(C(C)C)on2)[C@H]2CS(=O)(=O)C[C@H]21` | 7.965% |
| 50 | `CC(C)(C)c1nc(CNC(=O)N2CCc3ccccc3C2CO)no1` (stereo not given) | 10.48% |
| 51 | `O=C(C(c1ccccc1)S(=O)(=O)c1ccccn1)N1CCCCC1` (stereo not given) | 8.467% |
| 52 | `Cc1nn(C)c(C)c1CN1CCCC1c1nccc(CN(C)C)n1` (stereo not given) | 14.06% |
| 53 | `CC(NC(=O)c1csnn1)c1ccc(OCC2CC2)c(F)c1` (stereo not given) | 8.877% |
| 54 | `Cc1noc(C)c1CN1CCCC1c1nnc2ccccn12` (stereo not given) | 15.48% |
| 55 | `CC1C(=O)Nc2cccnc2N1S(=O)(=O)c1ccc(C#N)c(Cl)c1` (stereo not given) | 12.78% |
| 56 | `CCOc1ccccc1C(=O)Oc1cc(=O)n2cccc(C)c2n1` | 18.08% |
| 57 | `O=C(Nc1ccccc1N1CCOC1=O)N1CCSCC1` | 4.8% |
| 58 | `Cc1cc(C)c2[nH]c(C(=O)NCCN3CCNC3=O)c(C)c2c1` | 15.41% |
| 59 | `CCS(=O)(=O)N1CCC2(CC1)c1ncc(-c3cccnc3)n1CCN2C` | 11.37% |
| 60 | `CS(=O)(=O)c1ccc(-c2nc(C(=O)N3CCCC3)n3ccccc23)cc1` | 14.86% |
| 61 | `Cc1nc(C)c(C(=O)NCCNC(=O)Cc2ccc(F)cc2)s1` | 5.587% |
| 62 | `Cc1nc(NC2CCCC2)cc(C2CCN2c2ncccn2)n1` (stereo not given) | 6.032% |
| 63 | `Cc1ccc(NC2CCN(C(=O)c3ccc(C)o3)CC2)nn1` | 20% |
| 64 | `CCN(CC)C(=O)C1CCC2(CCNCC2)CO1` (stereo not given) | 16.43% |
| 65 | `O=C(C1CC1)N1CC[C@H](c2nnc(Cc3c[nH]c4ccccc34)o2)C1` | 11.28% |
| 66 | `Cc1cccnc1CN1CCN(c2noc(-c3ccccc3)n2)CC1` | 0.7194% |
| 67 | `CN1C(=O)CO[C@H](c2ccc(NC(=O)Nc3ccccc3)cc2)[C@H]1CO` | 5.763% |
| 68 | `CCc1nc(CCNC(=O)Nc2ccc(C(=O)NC)cc2C)cs1` | 6.829% |
| 69 | `Cc1oc(C)c(C(=O)N2CCCN(c3nccs3)CC2)c1C` | 6.069% |
| 70 | `COCCc1noc(CNC2CCc3nc(C(C)C)nn3C2)n1` (stereo not given) | 5.556% |
| 71 | `Cc1c(NC(=O)c2cccc(Br)c2)c(C(=O)N(C)C)nn1C` | -2.261% |
| 72 | `CC1CCCN(CCCNC(=O)c2ccc(N(C)S(C)(=O)=O)cc2Cl)C1` (stereo not given) | 11.72% |
| 73 | `CCn1cc(CN2CCCC(CO)(CCc3ccccc3)C2)c(C)n1` (stereo not given) | 10.78% |
| 74 | `CNC(=O)C1CN(C)CCN(CCCOc2ccccc2F)C1` (stereo not given) | 16.77% |
| 75 | `c1csc(CN2CCc3nc(N4CCOCC4)nc(NC4CC4)c3C2)n1` | -7.092% |
| 76 | `Cc1csc(CNC(=O)NC2CCCc3c2cnn3CCO)n1` (stereo not given) | 10.61% |
| 77 | `O=C(c1cccnc1)N1CCCC(c2ncncc2-c2ccncc2)C1` (stereo not given) | 0.6472% |
| 78 | `CO[C@H]1CN(Cc2ccccc2F)C[C@@]12CCCO2` | 4.941% |
| 79 | `COc1cc2nc3n(c(=O)c2cc1OC)CCN(C(=O)C1CC1)CC3` | 8.235% |
| 80 | `CCN1CCO[C@@H]2CN(C(=O)c3ccc4[nH]ccc4c3)CC[C@@H]2C1` | 17.37% |
| 81 | `COc1ccc(N2Cc3n[nH]c(=O)n3C2=O)cc1` | 9.722% |
| 82 | `Cc1ccc2c(c1)C(N(C)C)CC21CCN(CCO)CC1` (stereo not given) | 7.268% |
| 83 | `O=S(=O)(NCC1COCc2c(-c3ccncc3)nnn2C1)C1CC1` (stereo not given) | 7.333% |
| 84 | `COc1cc(N2C[C@@H]3COC[C@]3(COc3ncccc3F)C2)ncn1` | 7.333% |
| 85 | `Fc1ccc([C@@H]2COC[C@H]2NCc2cccc(F)c2)cc1` | 16.49% |
| 86 | `CCC[C@H]1CN(c2nccc(NCC)n2)C[C@@H]1NS(=O)(=O)N(C)C` | 9.589% |
| 87 | `CC(C)CC(=O)N1CCc2ccc(S(=O)(=O)N3CCN(C)CC3)cc2C1` | 14.52% |
| 88 | `Cc1noc(C)c1CNC(=O)N1CCC(NS(C)(=O)=O)CC1` | 10.64% |
| 89 | `CC(=O)N1CCCC(C(=O)NCCc2ccc(F)c(Br)c2)C1` (stereo not given) | 6.811% |

Some entries from above, unchanged:

| compound | inhibition |
|---|---|
| `O=C(NCc1cccnc1)[C@@H]1C[C@H]2[C@H](CCN2c2ncccn2)O1` | 2.198% |
| `Cc1nn(C)c(C)c1S(=O)(=O)N1CC[C@H]2O[C@@H](C)C[C@H]2C1` | 12.32% |
| `CCN1CCO[C@@H]2CN(C(=O)c3ccc4[nH]ccc4c3)CC[C@@H]2C1` | 17.37% |
| `C[C@@H]1CN(C2(C(=O)N3CCOCC3)Cc3ccccc3C2)C[C@H](C)O1` | 15.04% |
| `O=C1N(c2ccc(Br)cc2)Cc2n[nH]c(=O)n21` | 11.11% |

The values are deposited in ChEMBL (CHEMBL3988442, “University of Dundee, Small-Polar-MMV Screening Library” (2021)).